This note sets out measurements from paper PMC6585848.

The target in experiment [1] is CELLULOSE SYNTHASE 3 fused to the C-terminal part of ubiquitin (Cub) and the URA3 reporter protein (split-ubiquitin bait) (Arabidopsis thaliana) (UniProt Q941L0). The experiment in a line: two-hybrid; yeast split-ubiquitin two-hybrid in S. cerevisiae JD53; bait CESA3-Cub-URA3, preys fused to NubG; growth on SC-HT medium with 1 mg/ml 5-FOA; 80 colonies of each combination spotted, 30°C, 3 d.

Experiment [2] concerns the target YFP^N-CESA3 (the N-terminal half of YFP fused to the N-terminus of CESA3) (Arabidopsis thaliana) (UniProt Q941L0). The experiment in a line: split reporter; BiFC with the halves of YFP, co-expression in epidermal cells of Nicotiana benthamiana (tobacco) leaves, YFP fluorescence by confocal microscopy.

These are yes or no findings as the source states them, for the method shown. For some assays here: Binding seen in cells or lysates may run through a third protein. Some entries that bind do so weakly or less than the wild type. Sequences can lack the tags named with a protein.

B1: CELLULOSE SYNTHASE 3 fused to the C-terminal part of ubiquitin (Cub) and the URA3 reporter protein (split-ubiquitin bait) (enzyme, UniProt Q941L0 1-1065)
chain: MESEGETAGKPMKNIVPQTCQICSDNVGKTVDGDRFVACDICSFPVCRPCYEYERKDGNQSCPQCKTRYKRLKGSPAIPGDKDEDGLADEGTVEFNYPQKEKISERMLGWHLTRGKGEEMGEPQYDKEVSHNHLPRLTSRQDTSGEFSAASPERLSVSSTIAGGKRLPYSSDVNQSPNRRIVDPVGLGNVAWKERVDGWKMKQEKNTGPVSTQAASERGGVDIDASTDILADEALLNDEARQPLSRKVSIPSSRINPYRMVIMLRLVILCLFLHYRITNPVPNAFALWLVSVICEIWFALSWILDQFPKWFPVNRETYLDRLALRYDREGEPSQLAAVDIFVSTVDPLKEPPLVTANTVLSILAVDYPVDKVSCYVSDDGAAMLSFESLAETSEFARKWVPFCKKYSIEPRAPEWYFAAKIDYLKDKVQTSFVKDRRAMKREYEEFKIRINALVSKALKCPEEGWVMQDGTPWPGNNTRDHPGMIQVFLGQNGGLDAEGNELPRLVYVSREKRPGFQHHKKAGAMNALVRVSAVLTNGPFILNLDCDHYINNSKALREAMCFLMDPNLGKQVCYVQFPQRFDGIDKNDRYANRNTVFFDINLRGLDGIQGPVYVGTGCVFNRTALYGYEPPIKVKHKKPSLLSKLCGGSRKKNSKAKKESDKKKSGRHTDSTVPVFNLDDIEEGVEGAGFDDEKALLMSQMSLEKRFGQSAVFVASTLMENGGVPPSATPENLLKEAIHVISCGYEDKSDWGMEIGWIYGSVTEDILTGFKMHARGWRSIYCMPKLPAFKGSAPINLSDRLNQVLRWALGSVEILFSRHCPIWYGYNGRLKFLERFAYVNTTIYPITSIPLLMYCTLPAVCLFTNQFIIPQISNIASIWFLSLFLSIFATGILEMRWSGVGIDEWWRNEQFWVIGGVSAHLFAVFQGILKVLAGIDTNFTVTSKASDEDGDFAELYLFKWTTLLIPPTTLLIVNLVGVVAGVSYAINSGYQSWGPLFGKLFFAFWVIVHLYPFLKGLMGRQNRTPTIVVVWSVLLASIFSLLWVRIDPFTSRVTGPDILECGINC
For the molecule B1, in experiment [1], the binding result is given as “binds”.

B2: YFP^N-CESA3 (the N-terminal half of YFP fused to the N-terminus of CESA3) (enzyme, UniProt Q941L0 1-1065)
chain: MESEGETAGKPMKNIVPQTCQICSDNVGKTVDGDRFVACDICSFPVCRPCYEYERKDGNQSCPQCKTRYKRLKGSPAIPGDKDEDGLADEGTVEFNYPQKEKISERMLGWHLTRGKGEEMGEPQYDKEVSHNHLPRLTSRQDTSGEFSAASPERLSVSSTIAGGKRLPYSSDVNQSPNRRIVDPVGLGNVAWKERVDGWKMKQEKNTGPVSTQAASERGGVDIDASTDILADEALLNDEARQPLSRKVSIPSSRINPYRMVIMLRLVILCLFLHYRITNPVPNAFALWLVSVICEIWFALSWILDQFPKWFPVNRETYLDRLALRYDREGEPSQLAAVDIFVSTVDPLKEPPLVTANTVLSILAVDYPVDKVSCYVSDDGAAMLSFESLAETSEFARKWVPFCKKYSIEPRAPEWYFAAKIDYLKDKVQTSFVKDRRAMKREYEEFKIRINALVSKALKCPEEGWVMQDGTPWPGNNTRDHPGMIQVFLGQNGGLDAEGNELPRLVYVSREKRPGFQHHKKAGAMNALVRVSAVLTNGPFILNLDCDHYINNSKALREAMCFLMDPNLGKQVCYVQFPQRFDGIDKNDRYANRNTVFFDINLRGLDGIQGPVYVGTGCVFNRTALYGYEPPIKVKHKKPSLLSKLCGGSRKKNSKAKKESDKKKSGRHTDSTVPVFNLDDIEEGVEGAGFDDEKALLMSQMSLEKRFGQSAVFVASTLMENGGVPPSATPENLLKEAIHVISCGYEDKSDWGMEIGWIYGSVTEDILTGFKMHARGWRSIYCMPKLPAFKGSAPINLSDRLNQVLRWALGSVEILFSRHCPIWYGYNGRLKFLERFAYVNTTIYPITSIPLLMYCTLPAVCLFTNQFIIPQISNIASIWFLSLFLSIFATGILEMRWSGVGIDEWWRNEQFWVIGGVSAHLFAVFQGILKVLAGIDTNFTVTSKASDEDGDFAELYLFKWTTLLIPPTTLLIVNLVGVVAGVSYAINSGYQSWGPLFGKLFFAFWVIVHLYPFLKGLMGRQNRTPTIVVVWSVLLASIFSLLWVRIDPFTSRVTGPDILECGINC
With B2, the binding entry in experiment [2] is given as “binds”.
